Measured values reported in the supplement of paper PMC10849652.
The other results are listed elsewhere or left out.

Chains of the proteins cited; added tags and fusions are not shown. Lines headed by an entry give the natural chain unless they say otherwise; changes in a name come on top.
UniProt Q9NYZ2: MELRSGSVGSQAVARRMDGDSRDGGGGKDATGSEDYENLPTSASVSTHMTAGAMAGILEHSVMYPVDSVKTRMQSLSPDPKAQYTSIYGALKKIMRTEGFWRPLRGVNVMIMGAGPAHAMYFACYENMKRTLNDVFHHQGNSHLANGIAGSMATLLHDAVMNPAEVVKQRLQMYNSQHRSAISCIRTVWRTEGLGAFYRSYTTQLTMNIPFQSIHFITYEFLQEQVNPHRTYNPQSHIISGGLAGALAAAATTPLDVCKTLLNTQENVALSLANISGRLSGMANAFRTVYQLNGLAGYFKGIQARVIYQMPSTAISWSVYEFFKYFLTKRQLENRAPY
UniProt Q9H1U9: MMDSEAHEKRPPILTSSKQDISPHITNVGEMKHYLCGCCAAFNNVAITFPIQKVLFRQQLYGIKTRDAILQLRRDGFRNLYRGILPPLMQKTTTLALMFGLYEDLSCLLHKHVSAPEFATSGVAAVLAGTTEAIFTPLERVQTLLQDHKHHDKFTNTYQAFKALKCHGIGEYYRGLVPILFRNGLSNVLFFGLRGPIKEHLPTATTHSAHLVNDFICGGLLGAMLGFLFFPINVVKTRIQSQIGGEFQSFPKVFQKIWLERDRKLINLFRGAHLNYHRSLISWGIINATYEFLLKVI
UniProt Q96DW6: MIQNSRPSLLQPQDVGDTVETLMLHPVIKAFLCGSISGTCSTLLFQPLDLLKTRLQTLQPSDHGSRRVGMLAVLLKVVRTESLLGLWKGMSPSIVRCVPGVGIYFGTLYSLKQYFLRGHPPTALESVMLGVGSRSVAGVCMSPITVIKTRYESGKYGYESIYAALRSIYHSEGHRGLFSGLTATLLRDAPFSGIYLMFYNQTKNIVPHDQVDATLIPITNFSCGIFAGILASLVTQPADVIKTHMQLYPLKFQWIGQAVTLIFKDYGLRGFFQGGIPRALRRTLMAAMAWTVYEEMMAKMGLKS
UniProt P78381: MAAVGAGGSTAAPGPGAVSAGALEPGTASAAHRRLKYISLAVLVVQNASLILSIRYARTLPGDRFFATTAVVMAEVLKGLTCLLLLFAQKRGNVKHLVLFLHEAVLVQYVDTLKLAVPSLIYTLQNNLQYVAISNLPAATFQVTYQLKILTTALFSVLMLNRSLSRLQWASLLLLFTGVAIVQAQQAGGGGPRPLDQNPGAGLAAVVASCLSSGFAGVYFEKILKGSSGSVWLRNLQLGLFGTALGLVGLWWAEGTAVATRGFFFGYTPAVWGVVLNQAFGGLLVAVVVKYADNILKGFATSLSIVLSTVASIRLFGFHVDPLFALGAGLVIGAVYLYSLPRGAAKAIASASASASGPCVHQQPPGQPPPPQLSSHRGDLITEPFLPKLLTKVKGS
UniProt Q70HW3: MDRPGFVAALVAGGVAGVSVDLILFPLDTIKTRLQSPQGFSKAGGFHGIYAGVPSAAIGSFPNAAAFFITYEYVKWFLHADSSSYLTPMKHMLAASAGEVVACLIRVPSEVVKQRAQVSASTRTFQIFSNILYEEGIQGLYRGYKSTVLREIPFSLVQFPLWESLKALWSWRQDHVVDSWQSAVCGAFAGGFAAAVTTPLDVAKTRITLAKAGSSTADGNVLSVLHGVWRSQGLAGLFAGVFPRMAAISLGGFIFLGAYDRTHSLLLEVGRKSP
UniProt Q9H936: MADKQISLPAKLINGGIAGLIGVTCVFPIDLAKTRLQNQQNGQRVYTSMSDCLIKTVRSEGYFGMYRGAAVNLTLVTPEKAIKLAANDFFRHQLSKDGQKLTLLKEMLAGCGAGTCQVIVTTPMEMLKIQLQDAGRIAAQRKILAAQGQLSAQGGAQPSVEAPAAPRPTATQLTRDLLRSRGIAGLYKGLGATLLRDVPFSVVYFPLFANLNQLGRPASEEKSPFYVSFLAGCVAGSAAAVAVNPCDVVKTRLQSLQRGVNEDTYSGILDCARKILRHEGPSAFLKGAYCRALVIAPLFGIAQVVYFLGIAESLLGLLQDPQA
UniProt O43808: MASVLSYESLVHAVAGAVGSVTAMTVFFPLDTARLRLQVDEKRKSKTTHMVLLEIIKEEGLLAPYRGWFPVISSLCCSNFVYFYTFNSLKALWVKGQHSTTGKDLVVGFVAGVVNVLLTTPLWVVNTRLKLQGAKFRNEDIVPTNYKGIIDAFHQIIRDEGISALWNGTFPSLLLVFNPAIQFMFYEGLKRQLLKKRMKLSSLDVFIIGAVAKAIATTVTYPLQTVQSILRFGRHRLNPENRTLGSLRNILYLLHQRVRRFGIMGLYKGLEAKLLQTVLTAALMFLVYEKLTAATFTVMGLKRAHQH
UniProt Q8WUX1, whole entry, looked up: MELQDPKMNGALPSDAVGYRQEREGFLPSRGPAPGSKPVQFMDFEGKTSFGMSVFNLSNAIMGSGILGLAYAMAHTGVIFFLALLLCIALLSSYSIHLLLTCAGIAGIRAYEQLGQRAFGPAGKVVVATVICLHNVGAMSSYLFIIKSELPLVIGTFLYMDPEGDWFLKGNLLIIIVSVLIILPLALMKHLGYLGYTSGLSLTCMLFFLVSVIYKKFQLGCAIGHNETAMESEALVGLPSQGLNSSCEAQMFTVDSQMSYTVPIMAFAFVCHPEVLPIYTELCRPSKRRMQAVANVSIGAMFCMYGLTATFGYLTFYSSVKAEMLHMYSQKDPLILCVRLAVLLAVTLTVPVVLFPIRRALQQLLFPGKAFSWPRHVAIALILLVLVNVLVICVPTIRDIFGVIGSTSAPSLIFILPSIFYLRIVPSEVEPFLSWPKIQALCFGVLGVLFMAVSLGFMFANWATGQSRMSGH
UniProt P12235: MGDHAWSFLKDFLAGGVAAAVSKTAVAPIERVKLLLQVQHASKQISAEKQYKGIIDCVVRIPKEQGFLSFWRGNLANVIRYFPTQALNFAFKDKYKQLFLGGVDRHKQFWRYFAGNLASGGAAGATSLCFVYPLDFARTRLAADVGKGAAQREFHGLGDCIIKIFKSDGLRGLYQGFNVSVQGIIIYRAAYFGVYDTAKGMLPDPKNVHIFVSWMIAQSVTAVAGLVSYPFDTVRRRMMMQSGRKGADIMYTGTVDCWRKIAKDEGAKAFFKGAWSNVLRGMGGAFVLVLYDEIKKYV
UniProt P31641: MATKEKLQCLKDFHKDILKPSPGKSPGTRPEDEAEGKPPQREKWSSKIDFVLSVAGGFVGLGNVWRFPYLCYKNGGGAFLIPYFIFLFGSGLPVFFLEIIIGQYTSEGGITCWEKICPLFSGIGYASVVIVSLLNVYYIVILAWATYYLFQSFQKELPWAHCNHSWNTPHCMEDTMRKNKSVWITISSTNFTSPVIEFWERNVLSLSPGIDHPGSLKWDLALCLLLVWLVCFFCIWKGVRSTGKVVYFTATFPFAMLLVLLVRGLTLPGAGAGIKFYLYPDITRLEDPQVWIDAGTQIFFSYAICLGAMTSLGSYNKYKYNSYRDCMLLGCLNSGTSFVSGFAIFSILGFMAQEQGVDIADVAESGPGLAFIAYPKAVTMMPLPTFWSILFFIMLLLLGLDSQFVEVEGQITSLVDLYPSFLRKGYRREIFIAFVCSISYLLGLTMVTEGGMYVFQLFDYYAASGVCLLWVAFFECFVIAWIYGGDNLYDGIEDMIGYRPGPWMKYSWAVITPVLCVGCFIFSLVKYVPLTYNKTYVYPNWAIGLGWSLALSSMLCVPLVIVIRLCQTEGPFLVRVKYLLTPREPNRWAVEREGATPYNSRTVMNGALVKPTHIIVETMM
UniProt Q9UPY5: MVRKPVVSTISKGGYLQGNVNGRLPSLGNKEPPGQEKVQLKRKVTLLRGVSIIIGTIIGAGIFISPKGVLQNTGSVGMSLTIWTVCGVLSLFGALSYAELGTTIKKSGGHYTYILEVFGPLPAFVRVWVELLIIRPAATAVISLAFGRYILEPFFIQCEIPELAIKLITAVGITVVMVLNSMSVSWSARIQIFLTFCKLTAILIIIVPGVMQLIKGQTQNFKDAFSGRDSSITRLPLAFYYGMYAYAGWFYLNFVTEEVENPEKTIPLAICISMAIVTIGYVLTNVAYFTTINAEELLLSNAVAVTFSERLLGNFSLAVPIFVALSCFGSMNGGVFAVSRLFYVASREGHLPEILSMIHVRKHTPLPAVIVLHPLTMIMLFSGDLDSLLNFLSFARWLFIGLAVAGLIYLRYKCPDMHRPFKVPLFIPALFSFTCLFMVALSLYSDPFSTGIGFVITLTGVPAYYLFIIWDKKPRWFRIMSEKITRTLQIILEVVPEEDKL
UniProt Q8IYB5: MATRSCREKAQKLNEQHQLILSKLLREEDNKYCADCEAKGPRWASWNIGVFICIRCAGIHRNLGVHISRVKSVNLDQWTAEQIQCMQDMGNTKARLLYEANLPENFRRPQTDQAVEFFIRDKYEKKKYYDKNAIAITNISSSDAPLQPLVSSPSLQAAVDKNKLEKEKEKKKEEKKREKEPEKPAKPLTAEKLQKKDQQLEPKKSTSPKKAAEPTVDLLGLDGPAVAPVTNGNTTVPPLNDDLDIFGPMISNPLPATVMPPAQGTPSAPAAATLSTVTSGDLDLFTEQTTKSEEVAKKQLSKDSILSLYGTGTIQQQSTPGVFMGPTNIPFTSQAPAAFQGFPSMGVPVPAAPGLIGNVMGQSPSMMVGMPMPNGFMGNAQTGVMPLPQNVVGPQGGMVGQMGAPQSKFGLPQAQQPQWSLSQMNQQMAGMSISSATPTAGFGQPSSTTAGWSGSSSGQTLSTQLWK
UniProt Q99808: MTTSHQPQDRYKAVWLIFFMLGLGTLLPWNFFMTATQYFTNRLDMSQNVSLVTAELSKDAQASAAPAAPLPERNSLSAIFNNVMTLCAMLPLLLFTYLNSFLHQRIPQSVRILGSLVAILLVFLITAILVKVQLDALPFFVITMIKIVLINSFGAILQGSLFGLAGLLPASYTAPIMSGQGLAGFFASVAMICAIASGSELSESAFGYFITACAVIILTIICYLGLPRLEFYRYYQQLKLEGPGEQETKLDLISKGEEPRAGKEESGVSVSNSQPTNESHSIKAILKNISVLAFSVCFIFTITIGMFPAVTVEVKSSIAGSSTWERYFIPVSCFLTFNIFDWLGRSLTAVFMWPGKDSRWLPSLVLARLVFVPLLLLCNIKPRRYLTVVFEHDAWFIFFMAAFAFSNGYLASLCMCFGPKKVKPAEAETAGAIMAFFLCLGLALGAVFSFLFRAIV
UniProt O95258: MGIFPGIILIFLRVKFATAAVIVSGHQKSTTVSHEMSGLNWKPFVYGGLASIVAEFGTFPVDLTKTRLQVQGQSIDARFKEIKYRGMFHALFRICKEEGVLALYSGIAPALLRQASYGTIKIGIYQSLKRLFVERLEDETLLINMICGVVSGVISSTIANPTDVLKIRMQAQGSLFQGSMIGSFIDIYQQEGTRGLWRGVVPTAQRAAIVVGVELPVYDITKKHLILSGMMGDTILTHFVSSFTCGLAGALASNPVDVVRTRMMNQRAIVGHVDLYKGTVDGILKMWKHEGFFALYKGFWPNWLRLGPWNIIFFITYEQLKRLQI
UniProt Q9BSK2: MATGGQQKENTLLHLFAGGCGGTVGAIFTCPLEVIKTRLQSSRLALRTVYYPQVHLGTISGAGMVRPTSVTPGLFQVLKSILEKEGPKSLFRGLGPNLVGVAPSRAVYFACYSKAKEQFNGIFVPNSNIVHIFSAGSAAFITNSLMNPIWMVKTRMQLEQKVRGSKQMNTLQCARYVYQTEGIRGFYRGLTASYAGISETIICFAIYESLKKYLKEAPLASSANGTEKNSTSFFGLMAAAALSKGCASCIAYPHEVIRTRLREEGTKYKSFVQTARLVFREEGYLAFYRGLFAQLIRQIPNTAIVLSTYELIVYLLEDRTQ
UniProt P78383: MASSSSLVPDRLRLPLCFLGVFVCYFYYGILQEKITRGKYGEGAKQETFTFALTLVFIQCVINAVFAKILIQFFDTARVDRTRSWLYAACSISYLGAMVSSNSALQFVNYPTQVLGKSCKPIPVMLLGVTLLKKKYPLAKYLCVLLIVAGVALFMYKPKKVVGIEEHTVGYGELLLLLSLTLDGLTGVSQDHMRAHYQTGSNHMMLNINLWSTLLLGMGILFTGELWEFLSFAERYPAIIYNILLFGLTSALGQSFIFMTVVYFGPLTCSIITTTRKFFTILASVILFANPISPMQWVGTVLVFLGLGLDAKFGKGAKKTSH
UniProt Q8NBW4: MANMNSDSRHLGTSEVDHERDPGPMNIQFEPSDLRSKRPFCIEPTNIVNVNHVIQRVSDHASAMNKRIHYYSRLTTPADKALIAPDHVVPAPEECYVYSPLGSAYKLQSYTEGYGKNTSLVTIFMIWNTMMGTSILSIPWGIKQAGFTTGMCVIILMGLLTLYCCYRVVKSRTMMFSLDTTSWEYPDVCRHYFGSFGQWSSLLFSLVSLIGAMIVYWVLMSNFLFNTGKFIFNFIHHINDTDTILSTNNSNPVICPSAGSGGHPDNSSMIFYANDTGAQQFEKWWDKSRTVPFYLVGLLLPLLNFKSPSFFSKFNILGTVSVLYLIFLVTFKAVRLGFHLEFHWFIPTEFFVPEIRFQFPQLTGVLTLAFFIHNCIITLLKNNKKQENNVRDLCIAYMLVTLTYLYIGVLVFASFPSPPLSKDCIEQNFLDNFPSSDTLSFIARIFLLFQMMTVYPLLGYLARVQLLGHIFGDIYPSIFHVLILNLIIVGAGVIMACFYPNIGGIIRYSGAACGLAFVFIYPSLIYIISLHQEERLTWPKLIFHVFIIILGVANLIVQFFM

Legend:
Assay in all cases: log2 fold change, soluble protein after heating vs DMSO (PISA); higher = thermal stabilisation; K562 lysate, 10 uM; active = over 0.2 and 3.5 SD of the protein, either way, in both replicates (recomputed)
nilotinib = compound: Cc1cn(-c2cc(NC(=O)c3ccc(C)c(Nc4nccc(-c5cccnc5)n4)c3)cc(C(F)(F)F)c2)cn1 [nilotinib]
Outline: (§1)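 To prepare the extract, K562 pellets were dounce-homogenised in PBS pH 7.4 with 1 mM MgCl2, giving crude material at 1 mg/mL protein. This was treated with 10 μM compound for 30 min, then heated in aliquots for 3 min over 48°C-58°C before pooling and addition of NP-40 to 0.5% at 4°C. Centrifugation at 21,000xg for 90 min left soluble protein in the supernatant, which TMTpro 16plex LC-MS/MS quantified with equalised channel sums. Results are log-two fold changes in thermal stability compared with solvent controls, from duplicates.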

[1] = compound: Cc1nc(Nc2n[nH]c3c2CN(C(=O)N[C@H](CN(C)C)c2ccccc2)C3(C)C)c2sccc2n1
Outline: as §1

dasatinib = compound: Cc1nc(Nc2ncc(C(=O)Nc3c(C)cccc3Cl)s2)cc(N2CCN(CCO)CC2)n1 [dasatinib]
Outline: as §1

[2] = compound: Cc1ncc(-c2ccnc(Nc3ccc(S(C)(=O)=O)cc3)n2)n1C(C)C
Outline: as §1

[3] = compound: Cn1cc(-c2ccc3c(c2)CCN3C(=O)Cc2cccc(C(F)(F)F)c2)c2c(N)ncnc21
Outline: as §1

quisinostat = compound: Cn1cc(CNCC2CCN(c3ncc(C(=O)NO)cn3)CC2)c2ccccc21 [quisinostat]
Outline: as §1

tipifarnib = compound: Cn1cncc1[C@@](N)(c1ccc(Cl)cc1)c1ccc2c(c1)c(-c1cccc(Cl)c1)cc(=O)n2C [tipifarnib]
Outline: as §1

[4] = compound: NC(=O)Nc1cc(-c2cccc(F)c2)sc1C(=O)N[C@H]1CCCNC1
Outline: as §1

[5] = compound: NC(=O)c1cnc(N[C@@H]2CCCC[C@@H]2N)nc1Nc1cccc(-n2nccn2)c1
Outline: as §1

[6] = compound: NC1(c2ccc(-c3nc4ccn5c(=O)[nH]nc5c4cc3-c3ccccc3)cc2)CCC1
Outline: as §1

[7] = compound: NCC(=O)Nc1ccc(-n2nc(C(F)(F)F)cc2-c2ccc3c(ccc4ccccc43)c2)cc1
Outline: as §1

vorinostat = compound: O=C(CCCCCCC(=O)Nc1ccccc1)NO [vorinostat]
Outline: as §1

silmitasertib = compound: O=C(O)c1ccc2c(c1)nc(Nc1cccc(Cl)c1)c1ccncc12 [silmitasertib]
Outline: as §1

[8] = compound: O=C1NC(=O)C(c2cnc3ccccn23)=C1c1cn2c3c(cc(F)cc13)CN(C(=O)N1CCCCC1)CC2
Outline: as §1

entospletinib = compound: c1cn2cc(-c3ccc4cn[nH]c4c3)nc(Nc3ccc(N4CCOCC4)cc3)c2n1 [entospletinib]
Outline: as §1

Measured: log2 fold change

SLC25A37 (UniProt Q9NYZ2)
inactive: nilotinib -0.056 | [1] 0.069 | dasatinib -0.002 | [2] 0.008 | [3] 0.015 | quisinostat -0.009 | tipifarnib 0.013 | [4] 0.022 | [5] -0.008 | [6] 0.014 | [7] 0.091 | vorinostat 0.099 | silmitasertib -0.125 | [8] 0.003 | entospletinib 0.019

SLC25A51 (UniProt Q9H1U9)
inactive: nilotinib 0.043 | [1] -0.036 | dasatinib 0.027 | [2] -0.003 | [3] -0.042 | quisinostat -0.024 | tipifarnib -0.022 | [4] -0.008 | [5] -0.054 | [6] -0.069 | [7] -0.021 | vorinostat -0.023 | silmitasertib -0.014 | [8] 0.077 | entospletinib 0.036

SLC39A11 (UniProt Q8N1S5)
inactive: nilotinib 0.072 | [1] -0.039 | dasatinib -0.092 | [2] -0.008 | [3] -0.123 | quisinostat 0.127 | tipifarnib 0.068 | [4] 0.045 | [5] 0.026 | [6] 0.099 | [7] -0.076 | vorinostat 0.103 | silmitasertib -0.015 | [8] 0.058 | entospletinib -0.137

SLC25A38 (UniProt Q96DW6)
inactive: nilotinib -0.097 | [1] -0.142 | dasatinib 0.015 | [2] -0.171 | [3] 0.15 | quisinostat -0.068 | tipifarnib -0.061 | [4] -0.019 | [5] -0.138 | [6] 0.06 | [7] -0.093 | vorinostat 0.109 | silmitasertib 0.129 | [8] -0.019 | entospletinib -0.075

SLC35A2 isoform 4 (UniProt P78381)
inactive: nilotinib -0.028 | [1] -0.015 | dasatinib 0.038 | [2] -0.035 | [3] 0 | quisinostat -0.097 | tipifarnib 0.088 | [4] 0.03 | [5] -0.03 | [6] -0.021 | [7] -0.011 | vorinostat 0.066 | silmitasertib -0.037 | [8] 0.023 | entospletinib 0.011

SLC25A26 (UniProt Q70HW3)
inactive: nilotinib -0.066 | [1] 0.057 | dasatinib 0.006 | [2] -0.042 | [3] -0.013 | quisinostat -0.184 | tipifarnib -0.028 | [4] 0.125 | [5] 0.062 | [6] -0.056 | [7] 0.037 | vorinostat 0.019 | silmitasertib -0.032 | [8] -0.071 | entospletinib -0.04

SLC25A22 (UniProt Q9H936)
inactive: nilotinib 0.013 | [1] -0.018 | dasatinib 0.029 | [2] 0.007 | [3] 0.019 | quisinostat 0.01 | tipifarnib 0.004 | [4] 0.009 | [5] -0.002 | [6] 0.026 | [7] -0.019 | vorinostat -0.032 | silmitasertib 0.002 | [8] -0.006 | entospletinib 0.008

SLC25A17 (UniProt O43808)
inactive: nilotinib -0.049 | [1] 0.006 | dasatinib 0.01 | [2] 0.032 | [3] 0.023 | quisinostat -0.125 | tipifarnib -0.068 | [4] 0.028 | [5] 0.038 | [6] -0.026 | [7] 0.021 | vorinostat 0.015 | silmitasertib -0.026 | [8] -0.033 | entospletinib -0.027

SLC38A5 (UniProt Q8WUX1)
inactive: nilotinib -0.001 | [1] 0.02 | dasatinib -0.005 | [2] -0.012 | [3] -0.028 | quisinostat -0.082 | tipifarnib -0.011 | [4] 0.014 | [5] -0.002 | [6] 0.005 | [7] 0.02 | vorinostat 0.106 | silmitasertib 0 | [8] -0.018 | entospletinib 0.008

SLC25A4 (UniProt P12235)
inactive: nilotinib 0.019 | [1] 0.031 | dasatinib 0.052 | [2] -0.038 | [3] 0.004 | quisinostat 0.064 | tipifarnib 0.006 | [4] 0.007 | [5] -0.019 | [6] 0.034 | [7] -0.023 | vorinostat -0.053 | silmitasertib 0.009 | [8] -0.074 | entospletinib 0.037

SLC25A36 (UniProt Q96CQ1)
inactive: nilotinib 0.081 | [1] -0.007 | dasatinib 0.012 | [2] 0.04 | [3] 0.085 | quisinostat 0.045 | tipifarnib -0.119 | [4] -0.08 | [5] 0.003 | [6] -0.031 | [7] -0.172 | vorinostat -0.071 | silmitasertib 0.001 | [8] 0.033 | entospletinib 0.013

SLC38A10 (UniProt Q9HBR0)
inactive: nilotinib 0.072 | [1] -0.073 | dasatinib -0.009 | [2] 0.05 | [3] -0.031 | quisinostat -0.013 | tipifarnib 0.047 | [4] -0.039 | [5] 0.01 | [6] 0.023 | [7] -0.034 | vorinostat 0.044 | silmitasertib -0.013 | [8] 0.08 | entospletinib 0.024

Copied from the listing (4 entries):
SLC38A5 (UniProt Q8WUX1)
inactive: nilotinib -0.001 | [1] 0.02 | dasatinib -0.005 | [2] -0.012 | [3] -0.028 | quisinostat -0.082 | tipifarnib -0.011 | [4] 0.014 | [5] -0.002 | [6] 0.005 | [7] 0.02 | vorinostat 0.106 | silmitasertib 0 | [8] -0.018 | entospletinib 0.008

SLC25A4 (UniProt P12235)
inactive: nilotinib 0.019 | [1] 0.031 | dasatinib 0.052 | [2] -0.038 | [3] 0.004 | quisinostat 0.064 | tipifarnib 0.006 | [4] 0.007 | [5] -0.019 | [6] 0.034 | [7] -0.023 | vorinostat -0.053 | silmitasertib 0.009 | [8] -0.074 | entospletinib 0.037

SLC25A36 (UniProt Q96CQ1)
inactive: nilotinib 0.081 | [1] -0.007 | dasatinib 0.012 | [2] 0.04 | [3] 0.085 | quisinostat 0.045 | tipifarnib -0.119 | [4] -0.08 | [5] 0.003 | [6] -0.031 | [7] -0.172 | vorinostat -0.071 | silmitasertib 0.001 | [8] 0.033 | entospletinib 0.013

SLC38A10 (UniProt Q9HBR0)
inactive: nilotinib 0.072 | [1] -0.073 | dasatinib -0.009 | [2] 0.05 | [3] -0.031 | quisinostat -0.013 | tipifarnib 0.047 | [4] -0.039 | [5] 0.01 | [6] 0.023 | [7] -0.034 | vorinostat 0.044 | silmitasertib -0.013 | [8] 0.08 | entospletinib 0.024

Additional entries follow.

SLC6A6 (UniProt P31641)
inactive: nilotinib 0.027 | [1] 0.004 | dasatinib -0.077 | [2] -0.004 | [3] 0.008 | quisinostat -0.073 | tipifarnib -0.021 | [4] 0.039 | [5] -0.006 | [6] 0 | [7] -0.079 | vorinostat 0.077 | silmitasertib 0.011 | [8] 0.044 | entospletinib 0.028

SLC7A11 (UniProt Q9UPY5)
inactive: nilotinib 0.024 | [1] 0.024 | dasatinib -0.026 | [2] -0.011 | [3] -0.04 | quisinostat -0.011 | tipifarnib 0.024 | [4] 0.019 | [5] 0.001 | [6] 0.041 | [7] 0.061 | vorinostat 0.012 | silmitasertib 0.001 | [8] 0.072 | entospletinib -0.048

SMAP1 isoform 2 (UniProt Q8IYB5)
inactive: nilotinib 0.029 | [1] -0.034 | dasatinib 0.006 | [2] -0.017 | [3] -0.033 | quisinostat 0.024 | tipifarnib 0.007 | [4] -0.01 | [5] -0.013 | [6] 0.023 | [7] -0.009 | vorinostat 0.089 | silmitasertib -0.051 | [8] -0.057 | entospletinib -0.01

SLC29A1 isoform 2 (UniProt Q99808)
inactive: nilotinib 0.001 | [1] 0.091 | dasatinib 0.016 | [2] 0.055 | [3] -0.025 | quisinostat -0.136 | tipifarnib -0.024 | [4] 0.02 | [5] -0.026 | [6] 0.035 | [7] 0.03 | vorinostat 0.124 | silmitasertib -0.023 | [8] -0.044 | entospletinib 0.066

SLC25A14 isoform 3 (UniProt O95258)
inactive: nilotinib 0.056 | [1] -0.072 | dasatinib 0.027 | [2] 0.047 | [3] 0.093 | quisinostat -0.123 | tipifarnib -0.093 | [4] 0.032 | [5] 0.015 | [6] 0 | [7] 0.029 | vorinostat 0.073 | silmitasertib -0.005 | [8] -0.014 | entospletinib 0.005

SLC25A33 (UniProt Q9BSK2)
inactive: nilotinib 0.029 | [1] 0.042 | dasatinib 0.03 | [2] -0.007 | [3] 0.018 | quisinostat 0.04 | tipifarnib 0.038 | [4] 0.023 | [5] -0.072 | [6] 0.013 | [7] 0.009 | vorinostat -0.022 | silmitasertib -0.033 | [8] 0.033 | entospletinib 0.003

SLC35B1 isoform 2 (UniProt P78383)
inactive: nilotinib 0.019 | [1] 0.04 | dasatinib -0.094 | [2] -0.03 | [3] -0.074 | quisinostat 0.217 | tipifarnib -0.183 | [4] 0.144 | [5] -0.008 | [6] 0.017 | [7] -0.008 | vorinostat 0.068 | silmitasertib -0.007 | [8] 0.073 | entospletinib -0.219

SLC38A9 (UniProt Q8NBW4)
inactive: nilotinib 0.036 | [1] 0.034 | dasatinib 0.074 | [2] 0.016 | [3] -0.023 | quisinostat -0.082 | tipifarnib -0.049 | [4] 0 | [5] -0.059 | [6] 0.005 | [7] 0.171 | vorinostat 0.092 | silmitasertib -0.006 | [8] 0.023 | entospletinib 0.01
